# Where a name gives a salt, the structure may show the parent alone. The list shows a part of the results. Hit calls seldom repeat between salt and free forms of one compound.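 Kinases, fused to nanoluciferase, were expressed in K562 cells; luminescence was measured every 4 h from 2 to 18 h as percent of control (DMSO = 100%, positive control = 0%). A time point is decreased if signal falls significantly (2 sigma). Hits were called by the authors by a rule that is not shown; the count of time points alone does not decide it.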
# By UniProt entry, the sequences of proteins in these tests, tags left out. Where a name states a change or a piece, a line headed by the entry shows the natural chain unless it says otherwise.
# UniProt P00519, whole entry: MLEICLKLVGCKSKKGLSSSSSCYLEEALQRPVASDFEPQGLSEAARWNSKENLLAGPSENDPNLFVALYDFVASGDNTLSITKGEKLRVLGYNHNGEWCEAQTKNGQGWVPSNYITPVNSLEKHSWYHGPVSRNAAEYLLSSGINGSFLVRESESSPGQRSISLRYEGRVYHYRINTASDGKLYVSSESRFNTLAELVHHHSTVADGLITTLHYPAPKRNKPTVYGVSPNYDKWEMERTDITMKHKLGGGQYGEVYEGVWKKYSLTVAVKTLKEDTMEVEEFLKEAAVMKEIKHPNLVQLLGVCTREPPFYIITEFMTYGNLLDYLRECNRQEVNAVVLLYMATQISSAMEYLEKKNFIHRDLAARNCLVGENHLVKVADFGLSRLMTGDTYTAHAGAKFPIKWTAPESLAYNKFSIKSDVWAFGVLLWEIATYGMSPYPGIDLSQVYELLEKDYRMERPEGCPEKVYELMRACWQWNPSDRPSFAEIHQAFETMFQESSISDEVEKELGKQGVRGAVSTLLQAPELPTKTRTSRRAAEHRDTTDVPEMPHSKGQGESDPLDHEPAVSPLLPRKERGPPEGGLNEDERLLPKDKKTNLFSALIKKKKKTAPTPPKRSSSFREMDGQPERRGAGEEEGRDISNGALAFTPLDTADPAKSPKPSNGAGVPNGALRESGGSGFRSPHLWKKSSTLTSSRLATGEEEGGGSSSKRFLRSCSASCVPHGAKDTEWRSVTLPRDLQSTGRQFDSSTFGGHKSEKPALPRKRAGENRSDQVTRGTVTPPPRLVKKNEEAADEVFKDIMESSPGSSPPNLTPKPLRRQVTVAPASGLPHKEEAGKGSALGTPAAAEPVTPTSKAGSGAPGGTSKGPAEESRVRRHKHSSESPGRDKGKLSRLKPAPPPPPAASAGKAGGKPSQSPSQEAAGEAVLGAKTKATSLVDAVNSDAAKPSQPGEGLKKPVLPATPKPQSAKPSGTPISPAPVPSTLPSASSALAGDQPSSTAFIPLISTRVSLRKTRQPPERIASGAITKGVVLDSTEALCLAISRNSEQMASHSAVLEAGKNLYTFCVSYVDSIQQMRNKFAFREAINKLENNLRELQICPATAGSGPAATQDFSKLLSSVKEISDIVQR
# UniProt P31749: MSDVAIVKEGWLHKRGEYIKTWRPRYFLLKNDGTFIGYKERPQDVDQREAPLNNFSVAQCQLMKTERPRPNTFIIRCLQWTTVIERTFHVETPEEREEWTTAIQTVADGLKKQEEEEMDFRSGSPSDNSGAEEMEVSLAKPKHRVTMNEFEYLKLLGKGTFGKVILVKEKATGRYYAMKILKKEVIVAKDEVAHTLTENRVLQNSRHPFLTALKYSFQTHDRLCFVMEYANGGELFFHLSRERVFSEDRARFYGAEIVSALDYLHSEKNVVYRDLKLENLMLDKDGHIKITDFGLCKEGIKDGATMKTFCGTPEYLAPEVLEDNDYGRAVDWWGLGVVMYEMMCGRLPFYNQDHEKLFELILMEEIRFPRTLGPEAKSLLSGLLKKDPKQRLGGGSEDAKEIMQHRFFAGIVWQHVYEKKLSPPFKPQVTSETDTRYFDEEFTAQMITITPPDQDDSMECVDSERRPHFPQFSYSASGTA
# UniProt P10398: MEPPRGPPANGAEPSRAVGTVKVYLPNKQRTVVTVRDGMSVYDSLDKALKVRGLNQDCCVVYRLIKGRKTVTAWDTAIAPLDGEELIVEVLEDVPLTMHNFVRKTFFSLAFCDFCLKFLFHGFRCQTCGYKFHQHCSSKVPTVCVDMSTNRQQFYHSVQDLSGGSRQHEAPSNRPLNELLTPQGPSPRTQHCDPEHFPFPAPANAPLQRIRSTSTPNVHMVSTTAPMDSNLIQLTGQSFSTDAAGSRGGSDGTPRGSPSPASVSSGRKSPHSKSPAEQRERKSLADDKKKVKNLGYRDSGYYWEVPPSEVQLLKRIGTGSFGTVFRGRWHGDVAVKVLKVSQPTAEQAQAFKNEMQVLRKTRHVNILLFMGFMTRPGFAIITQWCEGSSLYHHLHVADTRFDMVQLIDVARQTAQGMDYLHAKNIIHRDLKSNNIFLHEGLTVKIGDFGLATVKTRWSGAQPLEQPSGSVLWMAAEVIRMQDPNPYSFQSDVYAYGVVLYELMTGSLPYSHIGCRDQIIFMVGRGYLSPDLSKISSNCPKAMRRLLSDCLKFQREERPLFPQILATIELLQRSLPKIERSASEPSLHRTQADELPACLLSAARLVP
# UniProt O14965: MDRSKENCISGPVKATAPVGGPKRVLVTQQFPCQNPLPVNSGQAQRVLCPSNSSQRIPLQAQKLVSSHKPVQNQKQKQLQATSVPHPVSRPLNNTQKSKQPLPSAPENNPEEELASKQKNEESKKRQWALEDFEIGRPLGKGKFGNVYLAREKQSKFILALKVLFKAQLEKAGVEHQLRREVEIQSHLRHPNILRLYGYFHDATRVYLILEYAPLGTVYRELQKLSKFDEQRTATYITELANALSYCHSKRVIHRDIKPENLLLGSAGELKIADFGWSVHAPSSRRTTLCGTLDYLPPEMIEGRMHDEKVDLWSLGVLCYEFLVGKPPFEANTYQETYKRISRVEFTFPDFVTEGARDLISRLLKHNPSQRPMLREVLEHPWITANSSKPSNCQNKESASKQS
# UniProt Q96GD4, whole entry: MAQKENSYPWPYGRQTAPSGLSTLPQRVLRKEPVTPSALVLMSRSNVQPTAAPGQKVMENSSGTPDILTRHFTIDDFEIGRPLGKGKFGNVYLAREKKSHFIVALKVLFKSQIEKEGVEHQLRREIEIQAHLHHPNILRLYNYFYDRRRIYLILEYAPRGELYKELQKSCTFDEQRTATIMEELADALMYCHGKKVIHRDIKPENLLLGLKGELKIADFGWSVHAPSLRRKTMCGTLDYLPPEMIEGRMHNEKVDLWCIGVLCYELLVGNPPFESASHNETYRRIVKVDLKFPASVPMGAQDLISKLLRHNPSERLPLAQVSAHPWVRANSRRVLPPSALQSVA
# UniProt Q9UQB9: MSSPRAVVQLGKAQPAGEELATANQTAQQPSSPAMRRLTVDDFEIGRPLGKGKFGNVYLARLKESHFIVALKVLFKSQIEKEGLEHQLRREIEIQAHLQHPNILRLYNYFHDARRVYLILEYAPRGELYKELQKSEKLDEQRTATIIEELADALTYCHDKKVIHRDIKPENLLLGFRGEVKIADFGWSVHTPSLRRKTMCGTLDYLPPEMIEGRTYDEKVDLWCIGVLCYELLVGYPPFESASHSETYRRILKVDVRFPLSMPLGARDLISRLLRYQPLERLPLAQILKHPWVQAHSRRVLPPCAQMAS
# UniProt P51451: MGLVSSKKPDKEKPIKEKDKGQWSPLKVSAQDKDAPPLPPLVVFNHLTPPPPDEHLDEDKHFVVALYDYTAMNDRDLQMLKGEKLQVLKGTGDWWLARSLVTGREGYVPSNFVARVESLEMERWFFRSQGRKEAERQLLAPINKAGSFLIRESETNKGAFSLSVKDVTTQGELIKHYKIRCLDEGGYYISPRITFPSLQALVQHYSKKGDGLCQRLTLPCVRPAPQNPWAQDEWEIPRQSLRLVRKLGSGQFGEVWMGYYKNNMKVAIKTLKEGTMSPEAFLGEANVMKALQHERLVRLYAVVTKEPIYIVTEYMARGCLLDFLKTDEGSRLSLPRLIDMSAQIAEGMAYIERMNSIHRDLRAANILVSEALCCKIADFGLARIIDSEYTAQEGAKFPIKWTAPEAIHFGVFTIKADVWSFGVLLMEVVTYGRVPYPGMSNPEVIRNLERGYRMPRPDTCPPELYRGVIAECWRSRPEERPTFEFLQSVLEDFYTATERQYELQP
# UniProt P51813: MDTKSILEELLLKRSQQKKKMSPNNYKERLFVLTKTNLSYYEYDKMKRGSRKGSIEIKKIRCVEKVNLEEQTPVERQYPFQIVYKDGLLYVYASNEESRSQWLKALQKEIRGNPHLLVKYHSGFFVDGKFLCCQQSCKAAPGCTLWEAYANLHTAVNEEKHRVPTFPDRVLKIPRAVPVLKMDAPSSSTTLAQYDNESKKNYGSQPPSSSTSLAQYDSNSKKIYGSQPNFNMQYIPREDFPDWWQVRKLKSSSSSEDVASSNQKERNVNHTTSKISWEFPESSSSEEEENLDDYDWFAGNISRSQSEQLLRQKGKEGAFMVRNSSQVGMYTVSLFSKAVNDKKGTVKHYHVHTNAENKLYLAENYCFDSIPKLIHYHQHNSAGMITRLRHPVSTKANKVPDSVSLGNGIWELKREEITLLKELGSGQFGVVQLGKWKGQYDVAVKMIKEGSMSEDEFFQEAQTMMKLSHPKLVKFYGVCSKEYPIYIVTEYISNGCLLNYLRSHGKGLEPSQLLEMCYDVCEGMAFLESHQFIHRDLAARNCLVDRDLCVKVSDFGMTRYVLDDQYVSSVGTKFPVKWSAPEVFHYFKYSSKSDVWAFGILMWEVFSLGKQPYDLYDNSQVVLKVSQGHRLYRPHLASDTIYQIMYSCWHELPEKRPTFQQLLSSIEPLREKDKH
# UniProt P15056, whole entry, looked up: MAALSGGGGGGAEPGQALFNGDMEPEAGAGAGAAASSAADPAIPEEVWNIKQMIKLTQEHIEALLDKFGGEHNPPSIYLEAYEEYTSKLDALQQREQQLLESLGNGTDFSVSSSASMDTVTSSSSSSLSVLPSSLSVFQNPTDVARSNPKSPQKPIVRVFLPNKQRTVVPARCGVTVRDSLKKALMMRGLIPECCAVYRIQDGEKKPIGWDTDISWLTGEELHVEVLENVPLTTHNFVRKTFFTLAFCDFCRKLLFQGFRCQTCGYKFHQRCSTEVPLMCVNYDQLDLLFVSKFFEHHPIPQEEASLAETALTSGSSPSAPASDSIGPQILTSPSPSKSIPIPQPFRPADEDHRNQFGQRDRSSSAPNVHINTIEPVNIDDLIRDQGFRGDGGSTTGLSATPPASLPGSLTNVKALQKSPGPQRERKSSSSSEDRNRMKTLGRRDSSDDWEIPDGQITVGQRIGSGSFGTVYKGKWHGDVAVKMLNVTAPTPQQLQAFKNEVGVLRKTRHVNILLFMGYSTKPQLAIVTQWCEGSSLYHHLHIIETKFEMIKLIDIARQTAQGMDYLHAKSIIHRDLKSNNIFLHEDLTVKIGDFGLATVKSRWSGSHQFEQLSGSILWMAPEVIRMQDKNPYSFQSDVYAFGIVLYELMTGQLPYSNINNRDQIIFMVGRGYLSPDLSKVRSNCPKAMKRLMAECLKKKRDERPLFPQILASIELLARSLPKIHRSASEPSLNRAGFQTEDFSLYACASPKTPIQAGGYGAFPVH
# Tests used:
# Assay in all cases: kinase-Nluc reporter destabilization hit call (1 = scored as downregulated) (binary); higher = compound decreases kinase abundance
# Details in all cases: K562; 2-18 h
# ABL1 = ABL1 (UniProt P00519)
# AKT1 = AKT1 (UniProt P31749)
# ALK = ALK (UniProt Q9UM73)
# ARAF = ARAF (UniProt P10398)
# AURKA = AURKA (UniProt O14965)
# AURKB = AURKB (UniProt Q96GD4)
# AURKC = AURKC (UniProt Q9UQB9)
# BLK = BLK (UniProt P51451)
# BMX = BMX (UniProt P51813)
# BRAF = BRAF (UniProt P15056)
Structure (SMILES),kinase-Nluc reporter destabilization hit call (ABL1),kinase-Nluc reporter destabilization hit call (AKT1),kinase-Nluc reporter destabilization hit call (ALK),kinase-Nluc reporter destabilization hit call (ARAF),kinase-Nluc reporter destabilization hit call (AURKA),kinase-Nluc reporter destabilization hit call (AURKB),kinase-Nluc reporter destabilization hit call (AURKC),kinase-Nluc reporter destabilization hit call (BLK),kinase-Nluc reporter destabilization hit call (BMX),kinase-Nluc reporter destabilization hit call (BRAF)
O=C(NCc1cccc(O)c1)c1cc2cc(F)ccc2[nH]1 (10 µM),inactive: 0,inactive: 0,inactive: 0,inactive: 0,inactive: 0,inactive: 0,inactive: 0,inactive: 0,inactive: 0,inactive: 0
COc1ccc(C(=O)c2cn(C(C)C)c3ncnc(N)c23)cc1NC(=O)Nc1ccc(Cl)cc1Cl (10 µM),inactive: 0,inactive: 0,inactive: 0,inactive: 0,inactive: 0,inactive: 0,inactive: 0,inactive: 0,inactive: 0,active: 1
Cc1c(C(=O)Nc2ccc(Oc3ccnc4cc(OCC(C)(C)O)ccc34)c(F)c2)c(=O)n(-c2ccccc2)n1C [Ningetinib Tosylate] (10 µM),inactive: 0,inactive: 0,inactive: 0,inactive: 0,inactive: 0,inactive: 0,inactive: 0,inactive: 0,inactive: 0,inactive: 0
CN(C)C(=O)c1cc2cnc(Nc3ccc(NC(=O)C4(C(=O)Nc5ccc(F)cc5)CC4)cc3)nc2n1C1CCCC1 (2 µM),inactive: 0,inactive: 0,inactive: 0,inactive: 0,inactive: 0,inactive: 0,inactive: 0,inactive: 0,inactive: 0,inactive: 0
CC(C)=CCC/C(C)=C/CC/C(C)=C/CSc1ccccc1C(=O)O [Salirasib] (10 µM),inactive: 0,inactive: 0,inactive: 0,inactive: 0,inactive: 0,inactive: 0,inactive: 0,inactive: 0,inactive: 0,inactive: 0
Cn1cc(C2=C(c3c4n(c5ccccc35)CCC(CN)C4)C(=O)NC2=O)c2ccccc21 (stereo not given) [Bisindolylmaleimide X (hydrochloride)] (2.5 µM),inactive: 0,inactive: 0,inactive: 0,inactive: 0,inactive: 0,inactive: 0,inactive: 0,inactive: 0,inactive: 0,inactive: 0
O=c1cc(-c2ccc(O)cc2)oc2cc(O)c(O)c(O)c12 [Scutellarein] (10 µM),inactive: 0,inactive: 0,inactive: 0,inactive: 0,inactive: 0,inactive: 0,active: 1,inactive: 0,inactive: 0,inactive: 0
Cc1occ2c1C(=O)c1c(O)ccc(O)c1C2 (2.5 µM),inactive: 0,inactive: 0,inactive: 0,inactive: 0,inactive: 0,inactive: 0,inactive: 0,inactive: 0,inactive: 0,inactive: 0
CN(C)CCCNc1ccn2ncc(-c3ccc4c(c3)OCO4)c2n1 (10 µM),inactive: 0,inactive: 0,inactive: 0,inactive: 0,inactive: 0,inactive: 0,inactive: 0,inactive: 0,inactive: 0,inactive: 0
CNC(=O)Nc1cc(Oc2cncc(C)c2)c(-c2ccc(OCC(C)(C)O)nc2)cn1 (2.5 µM),active: 1,inactive: 0,inactive: 0,inactive: 0,inactive: 0,inactive: 0,inactive: 0,inactive: 0,inactive: 0,inactive: 0
CCc1nc(C(N)=O)c(Nc2ccc(N3CCC(N4CCN(C)CC4)CC3)c(OC)c2)nc1NC1CCC(OC)CC1 (stereo not given) [EML4-ALK kinase inhibitor 1] (2.5 µM),inactive: 0,inactive: 0,inactive: 0,inactive: 0,inactive: 0,inactive: 0,inactive: 0,inactive: 0,inactive: 0,inactive: 0
C=CC(=O)N1CCC[C@@H](n2c(=O)n(-c3ccc(Oc4ccccc4)cc3)c3c(N)nccc32)C1 [Tolebrutinib] (10 µM),inactive: 0,inactive: 0,inactive: 0,inactive: 0,inactive: 0,inactive: 0,inactive: 0,inactive: 0,inactive: 0,inactive: 0
Oc1ccc2ccccc2c1SSc1c(O)ccc2ccccc12 (10 µM),inactive: 0,inactive: 0,inactive: 0,inactive: 0,inactive: 0,inactive: 0,inactive: 0,inactive: 0,inactive: 0,inactive: 0

# Some of the entries so far, with bars between the fields.
Structure (SMILES) | kinase-Nluc reporter destabilization hit call (ABL1) | kinase-Nluc reporter destabilization hit call (AKT1) | kinase-Nluc reporter destabilization hit call (ALK) | kinase-Nluc reporter destabilization hit call (ARAF) | kinase-Nluc reporter destabilization hit call (AURKA) | kinase-Nluc reporter destabilization hit call (AURKB) | kinase-Nluc reporter destabilization hit call (AURKC) | kinase-Nluc reporter destabilization hit call (BLK) | kinase-Nluc reporter destabilization hit call (BMX) | kinase-Nluc reporter destabilization hit call (BRAF)
O=C(NCc1cccc(O)c1)c1cc2cc(F)ccc2[nH]1 (10 µM) | inactive: 0 | inactive: 0 | inactive: 0 | inactive: 0 | inactive: 0 | inactive: 0 | inactive: 0 | inactive: 0 | inactive: 0 | inactive: 0
Cc1occ2c1C(=O)c1c(O)ccc(O)c1C2 (2.5 µM) | inactive: 0 | inactive: 0 | inactive: 0 | inactive: 0 | inactive: 0 | inactive: 0 | inactive: 0 | inactive: 0 | inactive: 0 | inactive: 0

# — the supplement of paper PMC12823440, “Inhibitors supercharge kinase turnover through native proteolytic circuits” (Nature, 2025)
